In PMC7463232 one finds binding data, which are given here for one substance.

The chains behind the UniProt entries cited, without tags or fusion partners.
UniProt Q9Y6R4: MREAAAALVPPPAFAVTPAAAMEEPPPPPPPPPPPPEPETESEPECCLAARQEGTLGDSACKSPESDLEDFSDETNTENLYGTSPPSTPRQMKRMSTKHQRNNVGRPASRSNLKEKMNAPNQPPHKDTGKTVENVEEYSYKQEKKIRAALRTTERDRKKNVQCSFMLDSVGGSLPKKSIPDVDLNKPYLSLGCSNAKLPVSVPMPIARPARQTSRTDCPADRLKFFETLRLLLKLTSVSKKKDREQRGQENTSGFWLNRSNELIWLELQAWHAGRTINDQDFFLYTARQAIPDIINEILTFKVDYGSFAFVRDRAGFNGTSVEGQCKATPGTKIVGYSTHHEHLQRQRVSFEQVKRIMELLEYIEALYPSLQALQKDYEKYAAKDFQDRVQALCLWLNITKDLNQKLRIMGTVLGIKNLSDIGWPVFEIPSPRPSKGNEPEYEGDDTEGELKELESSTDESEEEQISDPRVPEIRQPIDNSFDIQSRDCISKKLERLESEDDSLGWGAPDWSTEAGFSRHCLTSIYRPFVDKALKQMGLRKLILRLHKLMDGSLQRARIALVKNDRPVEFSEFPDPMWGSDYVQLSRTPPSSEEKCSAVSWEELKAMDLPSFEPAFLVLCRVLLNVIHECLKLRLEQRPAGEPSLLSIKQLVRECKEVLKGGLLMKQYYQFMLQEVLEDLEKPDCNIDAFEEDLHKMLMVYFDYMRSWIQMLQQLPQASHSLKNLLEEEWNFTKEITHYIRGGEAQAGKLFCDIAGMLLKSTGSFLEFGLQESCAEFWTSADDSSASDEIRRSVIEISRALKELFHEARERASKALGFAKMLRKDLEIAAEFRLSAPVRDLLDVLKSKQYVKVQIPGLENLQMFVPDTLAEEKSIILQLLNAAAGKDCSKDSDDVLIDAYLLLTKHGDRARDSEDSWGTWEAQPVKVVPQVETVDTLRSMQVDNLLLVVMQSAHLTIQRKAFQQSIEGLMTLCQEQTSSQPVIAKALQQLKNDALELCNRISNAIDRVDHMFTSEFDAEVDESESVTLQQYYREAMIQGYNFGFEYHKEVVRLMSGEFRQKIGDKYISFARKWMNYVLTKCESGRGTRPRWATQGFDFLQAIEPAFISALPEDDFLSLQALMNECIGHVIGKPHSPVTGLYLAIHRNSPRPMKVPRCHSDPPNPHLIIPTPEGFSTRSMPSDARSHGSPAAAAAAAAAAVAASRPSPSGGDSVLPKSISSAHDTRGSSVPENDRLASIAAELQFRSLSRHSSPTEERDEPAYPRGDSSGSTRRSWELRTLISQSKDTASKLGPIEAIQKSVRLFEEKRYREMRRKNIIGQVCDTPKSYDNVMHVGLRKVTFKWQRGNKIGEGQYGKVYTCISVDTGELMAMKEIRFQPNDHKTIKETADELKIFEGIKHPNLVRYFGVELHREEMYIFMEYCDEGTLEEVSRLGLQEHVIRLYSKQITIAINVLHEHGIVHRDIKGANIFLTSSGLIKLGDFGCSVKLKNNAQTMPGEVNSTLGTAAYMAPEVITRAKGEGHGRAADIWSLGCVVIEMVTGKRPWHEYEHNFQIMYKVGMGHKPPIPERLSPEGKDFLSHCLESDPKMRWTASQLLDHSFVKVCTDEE

The target in the experiment is T1, Growth arrest and DNA damage inducible beta (GADD45B) (human) (UniProt O75293).
T1 sequence: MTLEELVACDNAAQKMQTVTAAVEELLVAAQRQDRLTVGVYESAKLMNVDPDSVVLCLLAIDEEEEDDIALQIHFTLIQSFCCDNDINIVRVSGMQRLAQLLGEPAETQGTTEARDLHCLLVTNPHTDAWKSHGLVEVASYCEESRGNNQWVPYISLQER
As to the kind of experiment: co-IP; GADD45B primary antibody (50 µg) covalently coupled to resin (Pierce Co-IP Kit), incubated with 250 µL cell lysate overnight at 4 °C, eluted, western blotting; EC109 cells overexpressing GADD45B or treated with SFE (20 µM).

No constants are given. Whether binding was seen depends on the method and setting. In cells and extracts the contact can be indirect. Some results given as binding are weak or reduced against the parent protein; the word gives no strength.

For MAP3K4 (from UniProt Q9Y6R4 1-1608), the binding result is on record as “binds”.
